Laboratory results: article PMC10250300
No constants are given. Whether binding was seen depends on the method and setting. Binding seen in cells or lysates may run through a third protein. Some entries that bind do so weakly or less than the wild type.

Protein sequences, listed by entry. Tags and fused reporters are not part of them. Lines headed by an entry give the natural chain unless they say otherwise; changes in a name come on top. Residues count along the entry.
UniProt P19838, residues 1-433: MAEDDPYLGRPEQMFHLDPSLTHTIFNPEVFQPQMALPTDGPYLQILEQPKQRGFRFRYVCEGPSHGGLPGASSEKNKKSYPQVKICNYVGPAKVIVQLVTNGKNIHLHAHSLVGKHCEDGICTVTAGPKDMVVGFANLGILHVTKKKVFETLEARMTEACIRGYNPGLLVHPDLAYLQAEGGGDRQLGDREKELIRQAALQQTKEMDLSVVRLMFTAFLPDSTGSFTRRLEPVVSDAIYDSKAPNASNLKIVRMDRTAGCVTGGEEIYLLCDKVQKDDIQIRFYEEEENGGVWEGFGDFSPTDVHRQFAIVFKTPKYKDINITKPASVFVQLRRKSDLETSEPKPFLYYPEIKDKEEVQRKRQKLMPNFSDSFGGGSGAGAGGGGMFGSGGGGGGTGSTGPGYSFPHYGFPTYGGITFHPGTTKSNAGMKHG
UniProt Q04206: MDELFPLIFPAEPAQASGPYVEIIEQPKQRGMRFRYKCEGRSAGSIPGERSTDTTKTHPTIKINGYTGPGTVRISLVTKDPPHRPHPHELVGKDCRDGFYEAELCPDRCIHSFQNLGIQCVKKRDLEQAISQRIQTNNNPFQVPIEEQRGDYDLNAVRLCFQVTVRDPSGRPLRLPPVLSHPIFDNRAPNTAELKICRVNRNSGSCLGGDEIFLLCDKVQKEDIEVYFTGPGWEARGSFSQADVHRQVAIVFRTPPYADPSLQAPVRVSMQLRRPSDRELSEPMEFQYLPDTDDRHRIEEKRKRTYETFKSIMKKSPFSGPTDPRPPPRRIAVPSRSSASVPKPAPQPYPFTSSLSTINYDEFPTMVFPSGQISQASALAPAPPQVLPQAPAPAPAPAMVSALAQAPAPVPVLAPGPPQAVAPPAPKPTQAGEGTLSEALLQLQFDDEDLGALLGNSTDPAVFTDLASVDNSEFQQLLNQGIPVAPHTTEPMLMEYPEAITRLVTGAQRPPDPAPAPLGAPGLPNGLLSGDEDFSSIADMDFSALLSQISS
UniProt P08047: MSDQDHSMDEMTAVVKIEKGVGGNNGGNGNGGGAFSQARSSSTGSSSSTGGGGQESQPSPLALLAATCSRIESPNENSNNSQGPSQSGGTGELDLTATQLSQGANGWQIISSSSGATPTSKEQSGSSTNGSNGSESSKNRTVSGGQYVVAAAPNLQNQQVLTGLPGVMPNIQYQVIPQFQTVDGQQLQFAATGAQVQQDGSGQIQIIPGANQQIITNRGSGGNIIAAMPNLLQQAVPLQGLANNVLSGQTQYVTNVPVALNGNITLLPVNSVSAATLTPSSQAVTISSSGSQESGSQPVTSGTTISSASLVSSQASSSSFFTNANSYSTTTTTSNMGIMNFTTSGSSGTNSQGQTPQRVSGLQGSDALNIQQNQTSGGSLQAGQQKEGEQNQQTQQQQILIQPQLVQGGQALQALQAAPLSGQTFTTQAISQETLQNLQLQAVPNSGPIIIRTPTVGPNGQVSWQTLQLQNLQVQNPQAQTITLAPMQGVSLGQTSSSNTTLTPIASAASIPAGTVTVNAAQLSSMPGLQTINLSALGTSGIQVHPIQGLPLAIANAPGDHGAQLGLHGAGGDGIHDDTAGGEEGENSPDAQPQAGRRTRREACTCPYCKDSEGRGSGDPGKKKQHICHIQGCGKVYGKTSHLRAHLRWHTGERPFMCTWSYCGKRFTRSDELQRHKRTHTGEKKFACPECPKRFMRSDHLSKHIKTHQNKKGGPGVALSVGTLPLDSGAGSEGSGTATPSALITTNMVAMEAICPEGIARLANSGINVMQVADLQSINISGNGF
UniProt Q9C035: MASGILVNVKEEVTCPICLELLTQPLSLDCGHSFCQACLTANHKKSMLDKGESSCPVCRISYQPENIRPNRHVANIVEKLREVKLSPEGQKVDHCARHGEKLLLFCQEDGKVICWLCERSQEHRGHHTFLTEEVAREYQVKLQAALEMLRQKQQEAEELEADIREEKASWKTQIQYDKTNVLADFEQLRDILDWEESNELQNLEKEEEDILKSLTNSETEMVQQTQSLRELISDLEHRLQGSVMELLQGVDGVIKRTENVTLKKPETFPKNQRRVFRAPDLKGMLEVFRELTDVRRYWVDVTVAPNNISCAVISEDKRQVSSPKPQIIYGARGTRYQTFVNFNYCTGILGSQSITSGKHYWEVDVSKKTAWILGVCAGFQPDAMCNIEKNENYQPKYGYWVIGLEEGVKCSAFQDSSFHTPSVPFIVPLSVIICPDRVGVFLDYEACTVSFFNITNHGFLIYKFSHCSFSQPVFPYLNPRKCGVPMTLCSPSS
UniProt Q13547: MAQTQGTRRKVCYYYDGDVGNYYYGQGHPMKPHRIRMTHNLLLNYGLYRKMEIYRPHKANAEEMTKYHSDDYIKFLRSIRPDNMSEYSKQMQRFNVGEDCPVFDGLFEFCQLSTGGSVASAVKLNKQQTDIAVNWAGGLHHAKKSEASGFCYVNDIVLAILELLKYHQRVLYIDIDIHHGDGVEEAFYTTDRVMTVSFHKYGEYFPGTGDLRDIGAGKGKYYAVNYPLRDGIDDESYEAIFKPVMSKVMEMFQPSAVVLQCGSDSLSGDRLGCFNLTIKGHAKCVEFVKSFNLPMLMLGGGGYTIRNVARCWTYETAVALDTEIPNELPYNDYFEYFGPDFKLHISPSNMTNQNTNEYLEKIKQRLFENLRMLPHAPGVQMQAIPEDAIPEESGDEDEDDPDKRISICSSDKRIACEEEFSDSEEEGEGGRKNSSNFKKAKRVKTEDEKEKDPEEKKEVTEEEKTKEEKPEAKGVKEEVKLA

Key:
[1] = target: Flag-tagged NF-κB p50 (UniProt P19838); test: co-IP; 293T cells co-transfected with Myc-HDAC1 and Flag-Sp1, Flag-p65 or Flag-p50, with or without HA-TRIM5α (WT or mutant); lysed 48 h after transfection in RIPA buffer (20 mM Tris pH 7.5, 150 mM NaCl, 1% Triton X-100); precipitated with mouse anti-Flag, blotted with anti-Flag, anti-Myc, anti-HA; in Fig. 6f, g also with TNFα (20 ng/ml, 24 h) before lysis
[2] = target: Flag-tagged NF-κB p65 (UniProt Q04206); test: as above
[3] = target: Flag-tagged Sp1 (UniProt P08047); test: as above
[4] = target: HA-tagged human TRIM5α (wild type) (human) (UniProt Q9C035); test: co-IP; 293T cells co-transfected with HDAC1-Myc and HA-TRIM5α (WT, ΔRING, ΔB-box 2, L19R or R119E); lysed 48 h after transfection in RIPA buffer; precipitated with rabbit anti-HA on Protein G-agarose (rabbit IgG as control), overnight at 4 °C; blotted with anti-Myc and anti-HA
[5] = target: HA-tagged human TRIM5α L19R (human) (UniProt Q9C035); test: as above
[6] = target: Flag-tagged NF-κB p50 (UniProt P19838); test: co-IP
[7] = target: Flag-tagged NF-κB p65 (UniProt Q04206); test: co-IP

| Substance | binding [1] | binding [2] | binding [3] | binding [4] | binding [5] | binding [6] | binding [7] |
| --- | --- | --- | --- | --- | --- | --- | --- |
| HA-tagged human TRIM5α (wild type) (from UniProt Q9C035 1-493) | binds | binds weakly | binds |  |  |  |  |
| HA-tagged human TRIM5α R119E (from UniProt Q9C035 1-493) | binds weakly |  | binds weakly |  |  |  |  |
| Myc-tagged HDAC1 (from UniProt Q13547 1-482) (enzyme) |  |  |  | binds | binds | binds | binds |
